“And” between values parts separate entries of the source, which are not always exact repeats. Identical values can stand only once. The list shows a part of the results. The main result of the screen is listed elsewhere. These columns were measured beside it and carry no call. Most of these compounds were active or inconclusive in the main read-out, so they are no random draw. Potencies come from curve fits of mixed quality, noted in brackets.
Assay: qHTS Assay for Modulators of Lamin A Splicing
Details: HeLa LMNA splicing GFP/RFP minigene ratio, 48 h
In short: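 S3 HeLa stable clones carrying a lamin A-EGFP splicing minigene plus DsRed2 were seeded at 600 cells/well in Opti-MEM with 2% FBS, pin-dosed and incubated 48 h at 37°C. Acumen cytometry (488 nm) gave the GFP/RFP total-intensity ratio.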

[1] = measured here: GFP splicing reporter channel
[2] = measured here: RFP viability control channel

SMILES	AC50 [1]	AC50 [2]
CCc1ccc(C(=O)NC(Cc2c[nH]c3ccccc23)C(=O)OCC(=O)c2ccc(Br)cc2)cc1 (centres undefined)	1.12 µM [falling, full curve, poor fit]	1.12 µM [falling, full curve, poor fit]
O=C(Nc1ccc2c(c1)CCC2)c1cccc(S(=O)(=O)Nc2ccccc2Cl)c1		6.31 µM [rising, partial curve]
O=c1[nH][nH]c(C(F)(F)F)c1/C=N/N1CCOCC1		0.141 µM [rising, full curve, poor fit]
Cc1ccc(-c2nnc(SCC(=O)NCc3ccccc3)nc2-c2ccc(C)cc2)cc1		2.82 µM [rising, single point]
Cn1c(=O)n(CCc2ccccc2)c(=O)c2c1nc1n2CCCN1Cc1ccccc1		11.2 µM [rising, partial curve, poor fit]
COc1ccccc1N1CCN(C(=O)c2cnc(N3CCCCC3)c3ccccc23)CC1	35.5 µM [falling, partial curve, poor fit]	
O=C(O)c1ccc(COc2ccccc2/C=C2/NC(=O)N(c3cccc(Cl)c3)C2=O)cc1	7.08 µM [rising, partial curve]	
CCn1cc(C(=O)N2CC(C)CC(C)C2)c(=O)c2cc(S(=O)(=O)N3CCOCC3)ccc21 (centres undefined)		3.55 µM [falling, single point]
Fc1cccc(Cl)c1Cn1nnc2c(N3CCC4(CC3)OCCO4)ncnc21	12.6 µM [rising, partial curve]	12.6 µM [rising, partial curve]
Cc1cc(C(=O)COc2ccccc2[N+](=O)[O-])c(C)n1-c1cccc(S(=O)(=O)N2CCOCC2)c1	3.55 µM [rising, full curve, poor fit]	3.55 µM [rising, full curve]
COc1ccc(OC)c(C2C(C#N)=C(N)Oc3c2c(C)nn3-c2cccc(Cl)c2)c1 (centres undefined)	5.62 µM [rising, partial curve]	14.1 µM [rising, single point]
COc1ccc(CCNc2ccc(S(=O)(=O)N3CCCC3)cc2[N+](=O)[O-])cc1	31.6 µM [rising, single point]	35.5 µM [rising, single point]
CCCCn1c(NC(=O)c2ccccc2)c(C#N)c2nc3ccccc3nc21		31.6 µM [rising, single point]
c1ccc(-n2nc3c(ccc4cnnc43)[nH]2)cc1		0.178 µM [rising, full curve, poor fit]
COc1ccc(C2OC(=O)Cc3cc(OC)c(OC)cc32)cc1 (centres undefined)		1.26 µM [falling, partial curve]
Cc1cc(/C=N/n2cnnc2)c(C)n1-c1cccc(Cl)c1	14.1 µM [rising, partial curve, poor fit]	20 µM [rising, single point]
COc1ccccc1N1CCN(Cc2ccc(OC)c3ccccc23)CC1		25.1 µM [rising, single point]
Cc1ccc(Cl)cc1N1CCN(C(=O)CCCCCn2c(=O)[nH]c3ccccc3c2=O)CC1	22.4 µM [falling, single point]	17.8 µM [falling, single point]
COc1ccc(N2CCc3c(C)nc4c(OC)cc(OC)cc4c32)cc1		14.1 µM [rising, partial curve, poor fit]
O=c1c2ccccc2[nH]c(=S)n1CCC1=CCCCC1		6.31 µM [rising, full curve, poor fit]
c1ccc(-c2nn3c(-c4ccccc4)nnc3s2)cc1		4.47 µM [rising, single point]
Cc1ccc(C(=O)COc2ccccc2-c2ccccc2)cc1		31.6 µM [rising, single point]
C[n+]1ccc(/C=C/c2ccc(Br)cc2)cc1	39.8 µM [falling, partial curve, poor fit]	
O=[N+]([O-])c1cc(-c2nnc(Nc3ccc(O)cc3)c3ccccc23)ccc1N1CCOCC1		35.5 µM [rising, single point]
CN(Cc1ccccc1)c1ccc2nnc(-c3ccccc3)n2n1		5.01 µM [rising, partial curve]
O=C(CCc1ccccc1)Nc1nnc(-c2ccc3c(c2)CCCC3)o1		35.5 µM [rising, single point]

SMILES	AC50 [1]	AC50 [2]
CC(=O)c1cccc(NC(=O)C(C)n2c(=O)cc(-c3ccccc3)c3c(C)nn(C)c32)c1 (centres undefined)		12.6 µM [falling, partial curve, poor fit]
C=C(C)CNC(=S)N/N=C(\C)c1ccc(OC)cc1		10 µM [rising, partial curve, poor fit]
NS(=O)(=O)c1ccc(N/N=C/c2cn(-c3ccccc3)nc2-c2ccccc2)c([N+](=O)[O-])c1	7.94 µM [falling, partial curve, poor fit]	7.08 µM [falling, full curve, poor fit]
Cc1ccc(OCc2nnc(SCc3cc(=O)[nH]c4ccccc34)o2)cc1		35.5 µM [rising, single point]
COC(=O)N/N=C/c1cn(CC(C)COc2ccccc2)c2ccccc12 (centres undefined)	12.6 µM [rising, partial curve, poor fit]	35.5 µM [rising, partial curve]
Cc1nc2ccc(S(=O)(=O)NCC(=O)N3CCN(c4ccccn4)CC3)cc2s1		31.6 µM [rising, single point]
N#Cc1sc2nc(N3CCCCC3)c3c(c2c1N)CCCC3	17.8 µM [falling, single point]	35.5 µM [falling, single point]
O=C(Nc1cccc(C(=O)OCc2cc(=O)n3c4c(sc3n2)CCCC4)c1)c1cccc(Cl)c1	0.178 µM [falling, full curve]	
Cc1ccc(Sc2ncccc2COC(=O)Nc2ccccc2)cc1	35.5 µM [rising, single point]	35.5 µM [rising, single point]
Cc1sc2nc(COC(=O)c3ccc(N4CCCC(C)C4)c([N+](=O)[O-])c3)[nH]c(=O)c2c1C (centres undefined)	15.8 µM [rising, single point]	
COc1ccc(C(=O)OC(C)C(=O)Nc2cc(C(F)(F)F)ccc2Cl)c(OC)c1OC (centres undefined)		31.6 µM [rising, single point]
O=C(CCc1nnc(CCC2CCCCC2)o1)NCCc1cccnc1	8.91 µM [falling, partial curve]	10 µM [falling, partial curve, poor fit]
COc1ccccc1NC(=O)N1CCN(c2cccc(C(F)(F)F)c2)CC1	17.8 µM [rising, single point]	17.8 µM [rising, single point]
CCCCOc1ccc(C2=NNC(=O)CC2)cc1	7.08 µM [falling, partial curve, poor fit]	5.62 µM [falling, full curve, poor fit]
CCCCOP(=O)(OCCCC)C1(NS(=O)(=O)c2ccccc2)C=CC(=O)c2ccccc21 (centres undefined)	14.1 µM [rising, single point]	12.6 µM [rising, single point]
CC(=O)NC(Cc1cccc(F)c1)C(=O)NC1CCN(c2nnnn2-c2ccccc2)CC1 (centres undefined)	0.0158 µM [falling, full curve, poor fit]	
COc1ccccc1N1CCN(C(=O)c2ccc3nc(-c4ccco4)c(-c4ccco4)nc3c2)CC1		22.4 µM [rising, single point]
S=C(NCc1ccncc1)Nc1ccc(Cl)c(Cl)c1	35.5 µM [rising, single point]	35.5 µM [rising, single point]
Cc1ccc(NC(=O)C2CCN(S(=O)(=O)c3ccc4c(c3)CCCN4C(=O)C3CCC3)CC2)cc1	35.5 µM [falling, single point]	
CC(/C=C1\SC(=O)N(CCCC(=O)O)C1=O)=C\c1ccccc1		35.5 µM [rising, single point]
COc1ccc(NC(=O)Cc2c(F)cccc2Cl)c(OC)c1	2 µM [rising, partial curve, poor fit]	6.31 µM [rising, partial curve, poor fit]
COc1ccc(-n2cccc2/C=C/[N+](=O)[O-])cc1	31.6 µM [rising, single point]	35.5 µM [rising, single point]
C#CC(=O)N(c1cc(OC)ccc1OC)C(C(=O)NC1CCCC1)c1cccs1 (centres undefined)	35.5 µM [falling, single point]	35.5 µM [falling, single point]
Cc1ccccc1-c1cncnc1N(C)Cc1ccco1	10 µM [rising, partial curve]	35.5 µM [rising, single point]
N#Cc1c(NC(=O)CCn2cnc3ccccc3c2=O)oc(-c2ccccc2)c1-c1ccccc1	6.31 µM [rising, partial curve]	11.2 µM [rising, single point]
CCN(CC)c1ccc(NC(=O)CN2CCN(S(=O)(=O)c3cc(Cl)ccc3OC)CC2)cc1	22.4 µM [rising, single point] and 35.5 µM [falling, single point]	22.4 µM [rising, single point]
